Results are given in words; binding and its absence hold for the method and conditions named. Binding seen in cells or lysates may run through a third protein. Some results given as binding are weak or reduced against the parent protein; the word gives no strength. Where a sequence is shown, tags or fusion partners need not be part of it.

Protein sequences, listed by entry. Tags and fused reporters are not part of them.
UniProt P11142: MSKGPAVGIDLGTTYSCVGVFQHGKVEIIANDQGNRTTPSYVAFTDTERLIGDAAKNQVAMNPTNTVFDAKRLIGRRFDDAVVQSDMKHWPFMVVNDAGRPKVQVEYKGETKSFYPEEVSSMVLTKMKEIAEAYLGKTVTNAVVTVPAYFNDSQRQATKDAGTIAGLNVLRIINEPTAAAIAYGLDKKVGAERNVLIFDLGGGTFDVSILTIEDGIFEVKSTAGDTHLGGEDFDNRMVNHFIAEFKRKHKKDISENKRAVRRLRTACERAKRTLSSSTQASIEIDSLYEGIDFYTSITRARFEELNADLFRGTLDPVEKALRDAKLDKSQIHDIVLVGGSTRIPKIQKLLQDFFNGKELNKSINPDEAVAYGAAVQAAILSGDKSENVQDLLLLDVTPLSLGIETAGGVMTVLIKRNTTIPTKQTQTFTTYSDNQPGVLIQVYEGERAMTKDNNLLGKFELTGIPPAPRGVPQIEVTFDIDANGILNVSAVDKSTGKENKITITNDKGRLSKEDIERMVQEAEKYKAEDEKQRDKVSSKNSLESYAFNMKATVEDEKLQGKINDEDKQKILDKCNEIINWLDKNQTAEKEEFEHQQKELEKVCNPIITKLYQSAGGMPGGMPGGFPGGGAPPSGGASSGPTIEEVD

One assay deals with T1, HA-OGA-K358R (UniProt O60502).
T1 sequence: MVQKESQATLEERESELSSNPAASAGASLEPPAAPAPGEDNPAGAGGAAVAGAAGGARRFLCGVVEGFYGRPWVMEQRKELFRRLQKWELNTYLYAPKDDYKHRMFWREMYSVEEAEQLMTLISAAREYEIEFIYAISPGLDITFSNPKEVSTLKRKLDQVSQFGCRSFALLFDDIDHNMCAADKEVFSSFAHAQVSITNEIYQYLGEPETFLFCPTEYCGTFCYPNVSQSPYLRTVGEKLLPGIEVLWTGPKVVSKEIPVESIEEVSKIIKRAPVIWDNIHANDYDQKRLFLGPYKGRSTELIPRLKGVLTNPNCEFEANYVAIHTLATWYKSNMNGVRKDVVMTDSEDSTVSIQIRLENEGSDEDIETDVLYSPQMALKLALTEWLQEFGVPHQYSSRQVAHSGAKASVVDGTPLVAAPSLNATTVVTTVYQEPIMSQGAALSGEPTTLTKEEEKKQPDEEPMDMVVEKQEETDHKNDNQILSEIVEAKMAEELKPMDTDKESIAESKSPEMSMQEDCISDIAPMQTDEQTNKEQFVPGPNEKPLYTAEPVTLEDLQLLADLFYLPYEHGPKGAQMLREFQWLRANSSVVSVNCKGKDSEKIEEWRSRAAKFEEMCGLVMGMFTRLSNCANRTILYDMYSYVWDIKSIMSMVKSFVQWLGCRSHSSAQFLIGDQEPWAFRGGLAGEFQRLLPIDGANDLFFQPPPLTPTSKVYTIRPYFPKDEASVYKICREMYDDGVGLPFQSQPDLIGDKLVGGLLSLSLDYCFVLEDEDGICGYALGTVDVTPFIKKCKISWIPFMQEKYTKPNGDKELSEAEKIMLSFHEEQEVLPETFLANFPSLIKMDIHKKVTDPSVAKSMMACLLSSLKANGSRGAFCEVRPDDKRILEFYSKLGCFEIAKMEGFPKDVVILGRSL
Nature of the assay: co-IP; both proteins tagged and overproduced in transfected cells (HEK293T); immunoprecipitation by the tag, immunoblot; lysis buffer 200 mM NaCl, 1 mM EDTA, 20 mM Tris (pH 7.5), 0.5% NP-40. In general terms: In western blotting, separated proteins are transferred to a membrane and probed.

The target in another assay is T2, HA-YEATS2-K592R (UniProt Q9ULM3).
T2 sequence: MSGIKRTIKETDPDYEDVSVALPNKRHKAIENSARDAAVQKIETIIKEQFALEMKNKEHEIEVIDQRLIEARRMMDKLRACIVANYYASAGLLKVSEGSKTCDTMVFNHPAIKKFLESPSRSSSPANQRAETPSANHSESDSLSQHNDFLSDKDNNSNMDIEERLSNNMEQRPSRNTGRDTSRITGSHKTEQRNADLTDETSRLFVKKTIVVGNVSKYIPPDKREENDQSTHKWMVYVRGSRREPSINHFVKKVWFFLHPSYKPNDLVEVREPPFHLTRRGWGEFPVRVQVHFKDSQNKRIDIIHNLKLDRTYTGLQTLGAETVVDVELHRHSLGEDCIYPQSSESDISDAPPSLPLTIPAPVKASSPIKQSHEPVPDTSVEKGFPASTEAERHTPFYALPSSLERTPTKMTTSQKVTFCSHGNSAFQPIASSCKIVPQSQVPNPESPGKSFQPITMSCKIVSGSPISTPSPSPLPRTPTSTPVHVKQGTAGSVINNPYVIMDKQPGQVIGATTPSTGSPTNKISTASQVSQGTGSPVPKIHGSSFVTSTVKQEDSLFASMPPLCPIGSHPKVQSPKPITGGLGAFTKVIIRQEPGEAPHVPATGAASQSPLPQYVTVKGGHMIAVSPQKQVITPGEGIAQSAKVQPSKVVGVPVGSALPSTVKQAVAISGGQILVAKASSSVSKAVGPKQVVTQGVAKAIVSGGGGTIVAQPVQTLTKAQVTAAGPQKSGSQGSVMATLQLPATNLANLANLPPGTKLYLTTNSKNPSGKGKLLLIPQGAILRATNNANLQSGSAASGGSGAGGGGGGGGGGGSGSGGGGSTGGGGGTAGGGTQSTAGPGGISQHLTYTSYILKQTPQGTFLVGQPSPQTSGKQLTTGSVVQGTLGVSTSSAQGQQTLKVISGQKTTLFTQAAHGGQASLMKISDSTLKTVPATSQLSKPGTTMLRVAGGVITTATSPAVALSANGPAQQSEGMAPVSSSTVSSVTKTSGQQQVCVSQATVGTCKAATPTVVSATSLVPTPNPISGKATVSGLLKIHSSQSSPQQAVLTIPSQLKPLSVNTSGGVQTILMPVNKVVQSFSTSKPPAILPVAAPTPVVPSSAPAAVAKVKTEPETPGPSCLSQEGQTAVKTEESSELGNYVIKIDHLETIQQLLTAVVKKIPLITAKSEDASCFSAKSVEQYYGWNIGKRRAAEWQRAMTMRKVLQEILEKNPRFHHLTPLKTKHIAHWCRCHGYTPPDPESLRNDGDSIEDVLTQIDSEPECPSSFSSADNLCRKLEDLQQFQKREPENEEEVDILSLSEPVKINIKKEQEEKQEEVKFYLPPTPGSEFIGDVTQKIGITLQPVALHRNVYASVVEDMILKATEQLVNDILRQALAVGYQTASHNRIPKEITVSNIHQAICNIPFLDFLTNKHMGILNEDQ
Described as above.

Take Flag-HSC70 (from UniProt P11142 1-646): the binding entry in the assay with HA-OGA-K358R and in the assay with HA-YEATS2-K592R was “binds” in each case.
